The nature of this assay: qHTS Assay for Lipid Storage Modulators in Drosophila S3 Cells.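 For cell number change: cells counted by Cell Tracker Red CMTPX staining in the red channel.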 As to conditions: BODIPY lipid droplet fluorescence, 18-24 h; for cell number change: measured here: cell count max response, cells fed with added oleic acid. In short, it runs like this:
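Drosophila S3 cells got compounds at several concentrations plus oleic acid (400 uM solution). Laser-scanning cytometry with 488 nm excitation read lipid droplets at 500-530 nm and cells at 575-640 nm. Percent activity was relative to 20 uM Triacsin C.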

Setting [1] is: measured here: lipid fluorescence (Fed channel) AC50, cells fed with added oleic acid.
Setting [2] is: measured here: cell number channel AC50, cells fed with added oleic acid.

Some of the results follow. The main result of the screen is listed elsewhere. These columns were measured beside it and carry no call. Most of these compounds were active or inconclusive in the main read-out, so they are no random draw. Words in brackets tell the shape of the fitted curve; partial curves, single points and poor fits give uncertain potencies.

With `CCN1C(=O)c2cccc3c(NC(=O)c4ccc(S(=O)(=O)N(C)C)cc4)ccc1c23`, the AC50 under setting [1] was 1.3 µM [rising, partial curve].

Take `Cc1nnc(SCC(=O)Nc2ccc([N+](=O)[O-])cc2)n1C`: the cell number change was 1.35%.

Turning to `COc1ccc(Cl)c2sc(N(Cc3cccnc3)C(C)=O)nc12`, the cell number change is -8.55%. Besides, the AC50 under setting [2] was 7.31 µM [falling, single point]. In addition, the AC50 under setting [1] was 29.1 µM [rising, single point].

In the case of `Cc1ccc2[nH]c3c(N4CCN(Cc5ccccc5)CC4)ncnc3c2c1`, the cell number change is -40.1%. Also, under setting [2], the AC50 is 14.6 µM [falling, partial curve, poor fit]. Also, the AC50 under setting [1] is 29.1 µM [falling, single point].

On to `Cc1ccc(NS(=O)(=O)c2ccc3c(c2)c(=O)n(C)c(=O)n3C)cc1F`, for which the cell number change is -21.6%. Also, the concentration at half-maximal activity (AC50) under setting [1] was 5.17 µM [falling, full curve, poor fit].

`O=C1CC(c2ccccc2)c2ccccc21` (stereo not given): the cell number change was -38.9%. Moreover, the AC50 under setting [1] is 29.1 µM [falling, single point].

With `COc1cc2cc(C(C)(C)O)oc(=O)c2cc1OC`, the cell number change is -3.1%. Further, the AC50 under setting [1] was 16.4 µM [rising, single point].

`Cc1ccc(NC(=O)CO/N=C/c2ccccc2C)c(C)c1`: the AC50 is 6.51 µM [rising, single point] under setting [2] and 5.8 µM [rising, full curve] under setting [1].

Regarding `CCOC(=O)c1c(C)[nH]c(C)c1C(=O)COC(=O)/C=C/c1ccc(OC)cc1`, the cell number change is 25%. The AC50 under setting [2] is 0.517 µM [rising, full curve, poor fit].

With `Cc1cccn2c(=O)nc(SCC(=O)N3CCOCC3)nc12`, the cell number change stood at 13.1%. For the same compound, under setting [1], the concentration at half-maximal activity (AC50) is 3.26 µM [rising, full curve, poor fit].

Take `CC(C)(C)C(=O)Nc1ccc(C(=O)Nc2cccnc2)cc1`: the cell number change is -5.68%.

Take `CCC(C(=O)Nc1cccnc1)c1ccccc1` (stereo not given): the cell number change was -26%.

Take `CCN(CC)S(=O)(=O)N1CCN(S(=O)(=O)N2CCOCC2)CC1`: the cell number change is -2.95%. Moreover, the AC50 under setting [1] is 0.366 µM [falling, full curve].

Take `CC/C(=N/O)C(=O)c1ccc(Br)cc1`: the cell number change turned out to be 10.4%.

Regarding `O=C(O)CCSSCCC(=O)O`, the cell number change was -23.5%. Further, under setting [2], the AC50 is 0.146 µM [falling, full curve, poor fit].

On to `O=[N+]([O-])c1ccc(-c2ccc(/C=N/Nc3nc(N4CCCCC4)nc(N4CCCCC4)n3)o2)cc1`, for which the AC50 under setting [1] was 2.91 µM [falling, partial curve].

With `CCCCn1c(=O)c(CCC(=O)OCC(=O)Nc2cccc3ccccc23)nc2ccccc21`, the cell number change turned out to be 53.6%. Further, the AC50 under setting [2] was 7.31 µM [rising, partial curve]. For the same compound, the AC50 under setting [1] was 5.17 µM [rising, partial curve].

As to `Cn1c(=NC(=O)CS(=O)(=O)c2ccccc2)sc2cc([N+](=O)[O-])ccc21`, the AC50 under setting [2] was 2.06 µM [rising, single point].

Take `O=C(CNC(=O)c1ccc(Br)o1)NCc1cccc(Cl)c1`: the cell number change is -4.32%. For the same compound, the AC50 under setting [1] was 0.58 µM [rising, single point].

On to `CCN(CC)S(=O)(=O)c1ccc(N2CCOCC2)c(NC(=O)c2cc(C)cc(C)c2)c1`, for which the cell number change is 13%. Further, under setting [1], the AC50 is 1.64 µM [rising, single point].

Take `CCOc1ccccc1NC(=O)c1cc(SC)ccc1Cl`: the AC50 by setting is: under setting [2], 6.51 µM [rising, single point]; under setting [1], 3.26 µM [rising, partial curve].

Consider `CCOC(=O)c1c(NC(=O)C2=C(C)NC(=S)NC2c2ccc(F)cc2)sc(C)c1C` (stereo not given), for which the cell number change came out at 9.65%. The AC50 under setting [1] was 1.64 µM [rising, full curve, poor fit].

In the case of `CC(C)Nc1nc(-c2ccncc2)nc(-c2ccccc2)c1C#N`, the cell number change stood at 17.1%. Also, under setting [2], the half-maximal activity concentration (AC50) was 2.91 µM [rising, partial curve].

`Cc1cccc(OCC(=O)NNC(=O)c2cc3ccccc3oc2=O)c1`: the cell number change worked out at 40.5%. In addition, the AC50 under setting [2] was 5.8 µM [rising, partial curve, poor fit].

As to `CN(C)CCCN1C(=O)C(=O)/C(=C(/O)c2ccc(OCc3ccccc3)cc2)C1c1cccnc1` (stereo not given), the cell number change is -1.14%.

In the case of `Cc1ccc2c(c1)nnn2C1CCN(CC(=O)Nc2ccc3c(c2)OCCO3)CC1`, the cell number change stood at 8.64%. For the same compound, the concentration at half-maximal activity (AC50) under setting [2] is 1.03 µM [rising, single point].

As to `CN(CC(=O)Nc1ccccc1Br)C(=O)c1cccnc1Nc1cccc(C(F)(F)F)c1`, the AC50 under setting [1] is 20.6 µM [falling, single point].

With `COc1ccc(Nc2nc(N3CCN(S(C)(=O)=O)CC3)nc3ccccc23)c(OC)c1`, the cell number change came out at 21.4%. Further, the AC50 under setting [2] is 7.31 µM [rising, partial curve]. Further, the AC50 under setting [1] was 6.51 µM [rising, single point].

Regarding `O=C(NCc1ccccc1)Nc1cccn(Cc2ccccc2)c1=O`, the cell number change came out at 12.2%. The AC50 under setting [1] is 16.4 µM [rising, partial curve, poor fit].

Regarding `O=C(CC1C(=O)NCCN1Cc1ccc(-c2ccccc2)cc1)NCC1CC1` (stereo not given), the cell number change is -1.55%. Under setting [1], the AC50 is 0.146 µM [falling, full curve, poor fit].

In the case of `CCC(C)(C)C1CCC(NC(=O)N2CCN(c3ccccc3O)CC2)CC1` (stereo not given), the cell number change was -15.8%.

As for `COc1ccc(NC(=O)CSc2nnc(Cc3ccc(C)cc3)c(=O)n2N)cc1`, the AC50 under setting [1] was 1.3 µM [rising, full curve, poor fit].

`O=C(NCc1nc(-c2ccc(C(F)(F)F)cc2)no1)c1cccs1`: the cell number change came out at 55.7%. Moreover, under setting [2], the AC50 is 29.1 µM [rising, single point]. Under setting [1], the AC50 is 29.1 µM [rising, single point].

In the case of `O=C(CSc1nccn1Cc1ccccc1)Nc1ccccc1`, the cell number change came to 55.1%. In addition, under setting [2], the AC50 is 29.1 µM [rising, single point].

Regarding `C=CCn1c(=O)c2ccccc2n2c(SCc3csc(-c4ccccc4)n3)nnc12`, the cell number change was -7.01%. In addition, the AC50 under setting [1] was 0.326 µM [rising, full curve, poor fit].

As for `CCCOc1ccccc1N/C(N)=N/c1nc(C)cc(C)n1`, the cell number change is -19.6%. Besides, the AC50 under setting [1] was 18.4 µM [falling, partial curve].

`CCOc1ccc(CNS(=O)(=O)c2ccc(-c3coc(C)n3)cc2)cc1`: the cell number change was found to be 17.9%. The AC50 under setting [1] was 25.9 µM [rising, single point].

On to `O=C(COc1ccc(S(=O)(=O)NC2CCCCC2)cc1Cl)NCc1cccnc1`, for which the cell number change was -1.82%. Moreover, under setting [1], the half-maximal activity concentration (AC50) is 7.31 µM [falling, partial curve, poor fit].

For the compound `c1ccc(OCC2CCNCC2)nc1`, the cell number change amounted to 1.1%.

For `N#C/C(=C(/O)COC(=O)c1ccc(C#N)cc1)c1nc2ccccc2s1`, the cell number change was found to be 43.2%. For the same compound, the AC50 under setting [2] was 13 µM [rising, single point]. Further, the AC50 under setting [1] is 4.61 µM [falling, partial curve, poor fit].

Regarding `O=C(CCCC(=O)N(CC(=O)NC1CCCCC1)c1ccc(F)cc1)Nc1ccccn1`, the cell number change is -2.25%.

On to `CN1C(=O)[C@H]2[C@@H](/C=C/c3ccccc3)N3C(=O)CN(CC4CC4)C(=O)[C@@]3(C)[C@H]2C1=O`, for which the cell number change was -1.8%.

On to `Fc1ccc(/C=N/NC2=Nc3cccc4cccc2c34)cc1`, for which the cell number change is -32%. The AC50 under setting [2] was 32.6 µM [falling, single point]. Moreover, the AC50 under setting [1] is 1.64 µM [falling, partial curve].

As to `O=C(Cc1sc(-c2ccccc2Cl)nc1-c1ccccc1)Nc1ccccc1`, the cell number change worked out at 2.81%. The AC50 under setting [2] is 0.291 µM [rising, full curve, poor fit]. Besides, under setting [1], the AC50 is 2.59 µM [rising, partial curve].

Turning to `CSCC(O)Cn1[nH]c(=O)c2cc(Cl)c(Cl)cc2c1=O` (stereo not given), the cell number change was -43.7%. Moreover, under setting [2], the AC50 was 29.1 µM [falling, single point]. Besides, the concentration at half-maximal activity (AC50) under setting [1] was 29.1 µM [falling, single point].

For `O=C(CSc1nc2ccccc2c(=O)n1-c1ccccc1)N1CCc2ccccc2C1`, the cell number change amounted to 34%. Moreover, the AC50 under setting [2] is 16.4 µM [rising, single point]. For the same compound, under setting [1], the AC50 was 9.2 µM [rising, partial curve].

For `COc1cc(C(=O)OCC(=O)N(CC(C)C)C2CCS(=O)(=O)C2)cc(OC)c1C` (stereo not given), the cell number change amounted to 7.27%. Also, under setting [1], the AC50 was 13 µM [rising, partial curve].

As to `Cc1nc(SCC(=O)Nc2ccnc3ccccc23)n[nH]1`, the cell number change came to 111%. Further, the AC50 under setting [2] is 8.2 µM [rising, partial curve]. Under setting [1], the AC50 was 14.6 µM [rising, partial curve].

For `O=C1CN(S(=O)(=O)c2ccccc2Cl)CCN1`, the cell number change is -31.4%. Further, the AC50 under setting [1] is 6.51 µM [rising, partial curve, poor fit].

With `Cc1cccnc1NC(=O)CCCc1c[nH]c2ccccc12`, the cell number change worked out at 26.6%. Also, the AC50 under setting [1] is 16.4 µM [rising, single point].

For the compound `CC(NC(=O)/C(=C/c1ccc(OC(F)F)cc1)c1ccccc1)c1ccccc1` (stereo not given), the cell number change is -22.3%. Also, the AC50 under setting [1] was 16.4 µM [falling, single point].

On to `Cc1cc(OCC(O)CN2CCCC2)cc(C)c1Cl` (stereo not given), for which the cell number change stood at 12.4%. The half-maximal activity concentration (AC50) under setting [1] is 10.3 µM [rising, partial curve].

As to `Cc1ccc(CC(=O)Nc2cc(C)on2)cc1`, the AC50 under setting [2] is 0.291 µM [rising, partial curve, poor fit].

As to `CCN(CC)CCCN(C(=O)c1cccs1)c1nc(-c2ccc(OC)cc2)cs1`, the cell number change was -9.28%. In addition, under setting [1], the AC50 was 0.058 µM [rising, partial curve, poor fit].

Turning to `Cc1cc(C(=O)CSc2n[nH]c(-c3ccccc3F)n2)c(C)n1Cc1cccs1`, the AC50 under setting [2] was 1.46 µM [falling, full curve].

With `Cc1ccc2nc(SCC(=O)c3ccc(Cl)s3)[nH]c2c1`, the cell number change is -16.7%. The AC50 under setting [1] was 10.3 µM [rising, single point].

On to `CC(C)(C)NS(=O)(=O)c1ccc(N2C(=O)c3ccccc3C2=O)cc1`, for which the cell number change turned out to be 56.9%.

Consider `Cc1cccc(C)c1N1CCN(S(=O)(=O)c2ccccc2)CC1`, for which the cell number change stood at 15.5%.

Consider `CCn1ccc(C(=O)NC2CCCC2)n1`, for which the cell number change was -10.1%. Moreover, the AC50 under setting [1] was 0.0231 µM [rising, full curve, poor fit].

`COc1cc(OC)c2cc(C(=O)N/N=C/c3cccc(OC)c3O)[nH]c2c1`: the cell number change is -23.9%.

For `N#Cc1ccc(NCCc2ccccn2)c([N+](=O)[O-])c1`, the cell number change was -51.7%. Moreover, the concentration at half-maximal activity (AC50) under setting [2] is 2.59 µM [falling, full curve]. Further, the AC50 under setting [1] was 2.59 µM [falling, full curve].

(Values after PubChem BioAssay AID2685 (National Center for Advancing Translational Sciences (NCATS), 2010).)
